These results are taken from PMC7862700.

Chains of the proteins cited; added tags and fusions are not shown. Lines headed by an entry give the natural chain unless they say otherwise; changes in a name come on top.
UniProt Q01892: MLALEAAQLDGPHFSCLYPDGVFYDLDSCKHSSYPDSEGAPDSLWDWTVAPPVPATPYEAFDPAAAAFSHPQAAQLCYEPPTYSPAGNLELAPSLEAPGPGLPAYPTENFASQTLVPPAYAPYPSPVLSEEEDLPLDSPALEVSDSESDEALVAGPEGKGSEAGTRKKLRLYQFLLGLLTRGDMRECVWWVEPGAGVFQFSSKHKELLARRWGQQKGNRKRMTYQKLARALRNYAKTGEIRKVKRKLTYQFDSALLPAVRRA
UniProt P41161: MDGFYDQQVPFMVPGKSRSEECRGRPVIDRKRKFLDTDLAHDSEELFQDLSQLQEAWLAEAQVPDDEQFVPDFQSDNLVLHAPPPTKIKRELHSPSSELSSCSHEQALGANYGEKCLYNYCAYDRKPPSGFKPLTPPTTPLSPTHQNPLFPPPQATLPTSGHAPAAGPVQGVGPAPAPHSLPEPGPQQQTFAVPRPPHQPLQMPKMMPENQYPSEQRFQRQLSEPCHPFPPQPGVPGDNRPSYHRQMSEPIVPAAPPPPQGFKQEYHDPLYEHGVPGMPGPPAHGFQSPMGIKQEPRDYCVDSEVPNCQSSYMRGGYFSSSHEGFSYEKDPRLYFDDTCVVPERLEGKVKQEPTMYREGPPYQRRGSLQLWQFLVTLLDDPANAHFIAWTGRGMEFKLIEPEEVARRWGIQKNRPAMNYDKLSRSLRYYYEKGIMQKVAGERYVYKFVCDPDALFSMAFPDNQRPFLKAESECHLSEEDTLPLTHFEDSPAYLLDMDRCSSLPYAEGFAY
UniProt Q99607: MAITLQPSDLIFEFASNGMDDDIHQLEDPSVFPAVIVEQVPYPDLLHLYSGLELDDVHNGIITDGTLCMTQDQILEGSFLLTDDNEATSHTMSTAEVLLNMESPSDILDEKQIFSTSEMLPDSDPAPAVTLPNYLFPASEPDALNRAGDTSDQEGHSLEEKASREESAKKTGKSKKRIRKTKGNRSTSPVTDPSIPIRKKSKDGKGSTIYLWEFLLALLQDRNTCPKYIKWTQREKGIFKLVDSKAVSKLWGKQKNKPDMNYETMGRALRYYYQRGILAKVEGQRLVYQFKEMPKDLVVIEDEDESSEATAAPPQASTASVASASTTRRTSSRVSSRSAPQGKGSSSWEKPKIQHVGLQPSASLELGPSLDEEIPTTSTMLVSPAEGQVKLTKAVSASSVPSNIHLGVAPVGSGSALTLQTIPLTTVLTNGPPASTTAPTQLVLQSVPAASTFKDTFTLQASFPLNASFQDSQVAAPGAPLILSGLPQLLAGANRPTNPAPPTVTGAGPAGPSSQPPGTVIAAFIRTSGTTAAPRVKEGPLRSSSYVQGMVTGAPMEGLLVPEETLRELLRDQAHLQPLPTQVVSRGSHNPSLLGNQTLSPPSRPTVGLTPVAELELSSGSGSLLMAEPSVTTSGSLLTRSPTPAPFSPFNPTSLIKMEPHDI

Only a part is listed here, and it is no random draw. At the low end of the ranking the order means little.

Some targets named below: SPIB (UniProt Q01892); ETV5 (UniProt P41161); ELF4 (UniProt Q99607).
What all share (test): DAPPL (digital affinity profiling via proximity ligation, sequencing)
Conditions in all cases: 10 mM Tris-HCl pH 7.5, 50 mM NaCl, 1 mM DTT, 4% glycerol, room temperature, 30 min; GST-TFs on glutathione beads, 16-mer random dsDNA library, 0.1% …; high values mean tight binding; double strand, one strand shown; scale: fold enrichment (6-mer frequency, TF over GST control)

The next assay deals with T1, FLI1 (UniProt Q01543).
T1 sequence: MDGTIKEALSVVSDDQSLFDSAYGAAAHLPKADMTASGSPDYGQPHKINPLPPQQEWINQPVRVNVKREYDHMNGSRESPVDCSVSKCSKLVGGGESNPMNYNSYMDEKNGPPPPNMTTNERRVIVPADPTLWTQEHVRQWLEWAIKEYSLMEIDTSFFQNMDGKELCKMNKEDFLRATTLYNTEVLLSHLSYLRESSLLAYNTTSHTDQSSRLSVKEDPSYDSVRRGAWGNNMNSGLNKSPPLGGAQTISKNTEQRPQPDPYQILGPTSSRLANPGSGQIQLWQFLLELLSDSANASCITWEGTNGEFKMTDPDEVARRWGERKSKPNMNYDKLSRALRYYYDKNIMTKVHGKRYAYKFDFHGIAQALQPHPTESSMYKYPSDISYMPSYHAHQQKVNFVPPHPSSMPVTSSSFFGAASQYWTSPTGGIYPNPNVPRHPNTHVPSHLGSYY

The target of another assay is T2, EHF (UniProt Q9NZC4).
T2 sequence: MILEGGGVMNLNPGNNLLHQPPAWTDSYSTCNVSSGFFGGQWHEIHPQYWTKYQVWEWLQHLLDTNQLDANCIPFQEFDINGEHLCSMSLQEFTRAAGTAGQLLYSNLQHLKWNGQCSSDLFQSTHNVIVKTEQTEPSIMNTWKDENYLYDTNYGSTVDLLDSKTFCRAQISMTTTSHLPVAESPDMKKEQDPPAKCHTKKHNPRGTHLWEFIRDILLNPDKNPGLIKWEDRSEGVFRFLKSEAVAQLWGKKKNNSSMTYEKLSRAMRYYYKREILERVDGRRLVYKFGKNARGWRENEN

For a further assay, the target named is T3, ETV2 (UniProt O00321).
T3 sequence: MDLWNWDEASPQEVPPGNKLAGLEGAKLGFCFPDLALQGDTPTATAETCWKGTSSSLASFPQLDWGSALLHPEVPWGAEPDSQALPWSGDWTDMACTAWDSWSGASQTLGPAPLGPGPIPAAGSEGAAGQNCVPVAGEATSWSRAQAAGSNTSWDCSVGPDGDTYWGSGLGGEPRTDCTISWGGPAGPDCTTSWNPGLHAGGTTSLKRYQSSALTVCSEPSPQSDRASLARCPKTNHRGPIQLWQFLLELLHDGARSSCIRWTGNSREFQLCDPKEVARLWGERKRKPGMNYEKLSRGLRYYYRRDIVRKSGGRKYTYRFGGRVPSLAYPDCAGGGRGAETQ

The next assay has as its target T4, ETV3L (UniProt Q6ZN32).
T4 sequence: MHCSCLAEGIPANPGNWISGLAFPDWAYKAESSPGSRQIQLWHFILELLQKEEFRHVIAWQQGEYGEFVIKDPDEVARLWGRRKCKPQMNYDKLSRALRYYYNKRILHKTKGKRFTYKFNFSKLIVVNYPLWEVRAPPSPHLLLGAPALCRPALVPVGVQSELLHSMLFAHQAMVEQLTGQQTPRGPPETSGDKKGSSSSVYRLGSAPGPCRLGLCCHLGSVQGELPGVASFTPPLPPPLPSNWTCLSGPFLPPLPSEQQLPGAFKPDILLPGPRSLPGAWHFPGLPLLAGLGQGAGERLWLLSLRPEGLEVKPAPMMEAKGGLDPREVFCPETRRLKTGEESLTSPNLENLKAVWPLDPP

As for GTCGCA, the binding signal with FLI1 stood at 0.827; with EHF, 0.693; with SPIB, 0.755; with ETV5 it was 0.708; with ELF4, 0.713; in the assay with ETV2, 0.773. The same sequence had a binding signal with ETV3L of 0.685.
ATCGGG: the binding signal with FLI1 was 0.49; with EHF, 0.447; in the assay with SPIB, 0.448; with ETV5 it was 0.459; with ELF4 it was 0.457; with ETV2, 0.434. In addition, the binding signal in the assay with ETV3L worked out at 0.454.
On to GTTAGG, for which the binding signal with FLI1 was 0.7; in the assay with EHF it was 0.817; in the assay with SPIB it was 0.858; with ETV5, 0.841; with ELF4, 0.793; with ETV2, 0.801. Further, in the assay with ETV3L, the binding signal is 0.794.
With TAGAGC, the binding signal in the assay with FLI1 was 0.76; in the assay with EHF it was 0.861; in the assay with SPIB, 0.701; in the assay with ETV5, 0.707; with ELF4 it was 0.793; with ETV2 it was 0.79. In the assay with ETV3L, this sequence had a binding signal of 0.704.
With TCGTGA, the binding signal turned out to be 0.344 with FLI1; 0.366 with EHF; 0.323 with SPIB; 0.327 with ETV5; 0.352 with ELF4; 0.283 in the assay with ETV2. This sequence showed a binding signal with ETV3L of 0.364.
For AGCAAG, the binding signal in the assay with FLI1 was determined as 0.859; in the assay with EHF, 0.811; with SPIB, 0.918; in the assay with ETV5, 0.892; with ELF4, 0.895; in the assay with ETV2 it was 1.02. In the assay with ETV3L, the binding signal is 0.947.
Regarding AAGAGC, the binding signal with FLI1 stood at 0.915; with EHF, 0.871; in the assay with SPIB, 0.81; with ETV5, 0.846; in the assay with ELF4, 0.844; with ETV2, 0.883. The same sequence gave a binding signal with ETV3L of 0.822.
As to TGTAGT, the binding signal with FLI1 stood at 0.924; with EHF, 0.948; with SPIB, 0.851; with ETV5, 0.917; with ELF4 it was 0.895; with ETV2, 0.776. In addition, in the assay with ETV3L, the binding signal turned out to be 0.852.
For the sequence GTAGGT, the binding signal in the assay with FLI1 is 0.864; in the assay with EHF it was 0.786; with SPIB it was 0.807; with ETV5 it was 0.81; with ELF4, 0.846; with ETV2, 0.844. The binding signal in the assay with ETV3L was found to be 0.773.
As for CAGTGA, the binding signal with FLI1 stood at 0.358; with EHF, 0.351; in the assay with SPIB, 0.345; in the assay with ETV5, 0.351; with ELF4, 0.371; in the assay with ETV2, 0.302. For the same sequence, the binding signal in the assay with ETV3L came to 0.378.
Turning to GCTGGA, the binding signal in the assay with FLI1 came out at 0.828; with EHF, 0.768; with SPIB it was 0.832; with ETV5, 0.784; with ELF4 it was 0.837; with ETV2, 0.895. Also, the binding signal with ETV3L worked out at 0.932.
For the sequence GGGTGC, the binding signal with FLI1 came out at 0.719; with EHF, 0.753; with SPIB, 0.765; with ETV5, 0.844; in the assay with ELF4, 0.811; with ETV2, 0.801. The sequence further registered a binding signal in the assay with ETV3L of 0.781.
With GTAAGA, the binding signal with FLI1 came out at 0.751; with EHF, 0.792; with SPIB, 0.771; with ETV5 it was 0.812; with ELF4 it was 0.813; with ETV2, 0.889. In addition, the binding signal in the assay with ETV3L was determined as 0.779.
As to GCGTCG, the binding signal worked out at 0.699 in the assay with FLI1; 0.71 with EHF; 0.769 with SPIB; 0.733 in the assay with ETV5; 0.708 with ELF4; 0.764 with ETV2. Moreover, in the assay with ETV3L, the binding signal came to 0.748.
Take GAGGCA: the binding signal is 0.434 with FLI1; 0.418 with EHF; 0.473 with SPIB; 0.45 with ETV5; 0.41 with ELF4; 0.448 with ETV2. This sequence also displayed a binding signal with ETV3L of 0.451.
Turning to GCATTG, the binding signal with FLI1 was determined as 0.905; in the assay with EHF, 0.797; with SPIB, 0.707; with ETV5 it was 0.823; in the assay with ELF4, 0.778; with ETV2 it was 0.921. In the assay with ETV3L, the binding signal turned out to be 0.81.
Turning to GCAGTT, the binding signal in the assay with FLI1 stood at 0.873; with EHF it was 0.88; in the assay with SPIB, 0.895; with ETV5, 0.832; with ELF4, 0.835; with ETV2, 0.945. The sequence also gave a binding signal with ETV3L of 0.821.
Turning to GGCGCA, the binding signal amounted to 0.586 with FLI1; 0.622 with EHF; 0.595 in the assay with SPIB; 0.573 with ETV5; 0.608 with ELF4; 0.575 in the assay with ETV2. This sequence displayed a binding signal with ETV3L of 0.584.
As to AGTCGG, the binding signal with FLI1 was found to be 0.148; in the assay with EHF, 0.146; in the assay with SPIB it was 0.148; with ETV5 it was 0.129; in the assay with ELF4, 0.122; in the assay with ETV2, 0.139. Also, the binding signal with ETV3L is 0.142.
In the case of CGTGGG, the binding signal with FLI1 worked out at 0.384; with EHF, 0.358; in the assay with SPIB, 0.361; in the assay with ETV5 it was 0.354; in the assay with ELF4, 0.363; with ETV2 it was 0.375. This sequence also gave a binding signal in the assay with ETV3L of 0.369.
GGAGGG: the binding signal with FLI1 came to 0.333; in the assay with EHF, 0.298; in the assay with SPIB, 0.332; in the assay with ETV5 it was 0.331; with ELF4, 0.272; with ETV2, 0.293. This sequence showed a binding signal with ETV3L of 0.331.
As to CGGTGC, the binding signal in the assay with FLI1 was found to be 0.694; with EHF it was 0.71; with SPIB it was 0.709; with ETV5 it was 0.712; with ELF4, 0.738; with ETV2, 0.645. Besides, the binding signal in the assay with ETV3L was determined as 0.724.
Turning to ACCAGT, the binding signal with FLI1 is 0.443; with EHF, 0.467; with SPIB, 0.453; with ETV5, 0.46; with ELF4, 0.493; with ETV2 it was 0.399. Also, the binding signal with ETV3L came to 0.485.
Take AGTGAA: the binding signal with FLI1 was 0.882; in the assay with EHF it was 0.992; with SPIB, 0.813; with ETV5, 0.942; in the assay with ELF4, 0.897; with ETV2 it was 0.888. Besides, the binding signal in the assay with ETV3L came out at 0.901.
In the case of GAGCTG, the binding signal came to 0.802 with FLI1; 0.742 with EHF; 0.781 with SPIB; 0.744 with ETV5; 0.767 in the assay with ELF4; 0.689 with ETV2. In the assay with ETV3L, this sequence showed a binding signal of 0.617.
Take GGAAAG: the binding signal with FLI1 stood at 0.848; with EHF, 0.889; in the assay with SPIB it was 0.958; with ETV5 it was 0.932; with ELF4, 0.961; in the assay with ETV2 it was 0.884. In addition, in the assay with ETV3L, the binding signal was determined as 0.939.
In the case of TCAGAG, the binding signal in the assay with FLI1 was 0.711; with EHF it was 0.709; with SPIB, 0.722; in the assay with ETV5, 0.803; with ELF4, 0.727; with ETV2 it was 0.795. The same sequence yielded a binding signal in the assay with ETV3L of 0.711.
CAGCTG: the binding signal worked out at 0.923 with FLI1; 0.959 with EHF; 0.891 with SPIB; 0.781 in the assay with ETV5; 0.902 with ELF4; 0.919 with ETV2. In addition, the binding signal in the assay with ETV3L was determined as 0.963.
In the case of CATGTC, the binding signal in the assay with FLI1 stood at 0.861; with EHF, 0.791; with SPIB, 0.811; with ETV5, 0.793; with ELF4, 0.852; in the assay with ETV2, 0.821. Moreover, in the assay with ETV3L, the binding signal turned out to be 0.798.
Take TGAGTG: the binding signal was determined as 0.557 with FLI1; 0.489 in the assay with EHF; 0.411 with SPIB; 0.461 in the assay with ETV5; 0.47 with ELF4; 0.509 with ETV2. For the same sequence, the binding signal with ETV3L stood at 0.498.
